Results deposited as PubChem BioAssay AID1259254 (NCATS, 2017)
In all, the deposit lists about 59,000 reagents; below is a random part of them. About 1,550 of all reagents (2.6%) were called active. 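G2 share is only a proxy for re-replication; each gene was hit by three separate siRNAs, and active genes were retested.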 Unmarked entries are inactive. The numbers tell different reagents against one gene apart. Not all columns of the deposit are shown. The record does not give: the amount of reagent.

Assay: 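Gene knock-downs that lead to re-replication, shown by excess G2 DNA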 (primary screen)
Cells: human HCT116 colorectal cancer cells
Reagents: single siRNA against human genes
Time to read-out: 3 days
Measured: 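Imaged Hoechst DNA stain sorts each cell into a cycle phase by DNA amount; per plate, G2 fraction set to 0% for non-targeting and 100% for GMNN siRNA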
Reading the numbers: G2 robust z-score and G2 cells, % of GMNN control: higher = more G2 cells, more excess DNA replication
Hit rule: 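Active siRNAs have a G2 robust z of 5 or more median absolute deviations over the median, which in these data means about 38% or higher of GMNN control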

For CLDN10 (claudin 10) #1, how do the results read?
G2 robust z-score: -0.799; G2 cells, % of GMNN control: -2.65

Which result is listed for CLDN10 (claudin 10) #2?
G2 robust z-score: 2.96; G2 cells, % of GMNN control: 23.8

For CLDN10 (claudin 10) #3, what was measured?
G2 robust z-score: -0.102; G2 cells, % of GMNN control: 2.25

For SVEP1 #1, how do the results read?
G2 robust z-score: 0.887; G2 cells, % of GMNN control: 9.21

What is on record for SVEP1 #2?
G2 robust z-score: -0.157; G2 cells, % of GMNN control: 1.86

With SVEP1 #3, what was measured?
G2 robust z-score: 0.755; G2 cells, % of GMNN control: 8.28

What is on record for STIM2 (stromal interaction molecule 2) #1?
G2 robust z-score: -0.595; G2 cells, % of GMNN control: -1.22

For STIM2 (stromal interaction molecule 2) #2, what was measured?
G2 robust z-score: -0.776; G2 cells, % of GMNN control: -2.49

How did the screen score STIM2 (stromal interaction molecule 2) #3?
G2 robust z-score: 1.4; G2 cells, % of GMNN control: 12.8

With ALOX5 (arachidonate 5-lipoxygenase) #1, what does the deposit list?
G2 robust z-score: -0.775; G2 cells, % of GMNN control: -2.48

How did the screen score ALOX5 (arachidonate 5-lipoxygenase) #2?
G2 robust z-score: -0.469; G2 cells, % of GMNN control: -0.334

For ALOX5 (arachidonate 5-lipoxygenase) #3, what does the deposit list?
G2 robust z-score: 0.232; G2 cells, % of GMNN control: 4.6

With OR4N2 (olfactory receptor family 4 subfamily N member 2) #1, what was measured?
G2 robust z-score: -0.142; G2 cells, % of GMNN control: 1.97

How did the screen score OR4N2 (olfactory receptor family 4 subfamily N member 2) #2?
G2 robust z-score: 0.422; G2 cells, % of GMNN control: 5.94

With OR4N2 (olfactory receptor family 4 subfamily N member 2) #3, how do the results read?
G2 robust z-score: 1.11; G2 cells, % of GMNN control: 10.8

Which result is listed for E2F8 (E2F transcription factor 8) #1?
G2 robust z-score: 4.92; G2 cells, % of GMNN control: 37.6

How did the screen score E2F8 (E2F transcription factor 8) #2?
G2 robust z-score: -0.0926; G2 cells, % of GMNN control: 2.32

With E2F8 (E2F transcription factor 8) #3, what was measured?
G2 robust z-score: 1.12; G2 cells, % of GMNN control: 10.8
